Test results as given in publication PMC5461640 (Pharmacology Research & Perspectives, 2017).

Assay: peptide synthesis
Conditions: for crude HPLC purity: 220 nm

Substance	step yield (late stage modification step) [%]	crude HPLC purity (late stage modification step) [%]	step yield (lipidation step) [%]	final HPLC purity (lipidation step, HPLC (Kinetex 1.7 um C8, 0.05% formic acid water/MeCN, 220 nm)) [%]	crude HPLC purity (lipidation step) [%]
PEPTIDE1{C.Y.I.Q.N.C.P.L.G.[am]}|PEPTIDE2{[Pal]}$PEPTIDE1,PEPTIDE1,1:R3-6:R3|PEPTIDE1,PEPTIDE2,2:R3-1:R2$$$V2.0	85	98.8	–	–	–
PEPTIDE1{[Pal].C.Y.I.Q.N.C.P.L.G.[am]}|PEPTIDE2{[Pal]}$PEPTIDE1,PEPTIDE1,2:R3-7:R3|PEPTIDE1,PEPTIDE2,3:R3-1:R2$$$V2.0	–	–	79	98.2	–
PEPTIDE1{[Pal].C.Y.I.Q.N.C.P.L.G.[am]}$PEPTIDE1,PEPTIDE1,2:R3-7:R3$$$V2.0	–	–	95	–	97.8

Strings that start with PEPTIDE1 are HELM notation: dots part the residues, brackets hold end groups and non-standard residues.
